Values of other authors, collected in article PMC7757987, “Antitumor Activity and Mechanism Study of Riluzole and Its Derivatives” (Iranian Journal of Pharmaceutical Research : IJPR, 2020).

Conditions: cited from earlier work

Nc1nc2ccc(OC(F)(F)F)cc2s1 [Compound 1, 2-amino-6-trifuromethoxybenzothiazole]
Absolute bioavailability: ~60% | Blood-brain barrier crossing: able to cross the blood-brain barrier
